According to the supplement of paper PMC7661543:
Differences between knockout arms are mostly noise.

Test system: BT-20
Assay: relative cell number vs DMSO control (72 h) (% of DMSO); higher = less growth inhibition (more cells)
Method: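 QMAP-Seq: a pool of 5 breast cancer cell lines (ZR-75-1, SKBR3, HCC-38, MDA-MB-231, BT-20), each carrying 12 doxycycline-inducible Cas9 sgRNA perturbations (11 knockouts plus non-targeting sgNT), was treated with compounds for 72 h at four 10-fold doses (10 nM-10 uM or 1 nM-1 uM range). Barcodes were amplified and sequenced, and cell number was interpolated from 293T spike-in standard curves. The result is expressed as % of the median of DMSO wells. Two biological replicates.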

CC1(C)CCC(c2ccc(Cl)cc2)=C(CN2CCN(c3ccc(C(=O)NS(=O)(=O)c4ccc(N[C@H](CCN5CCOCC5)CSc5ccccc5)c(S(=O)(=O)C(F)(F)F)c4)cc3)CC2)C1 [Navitoclax]
Settings | relative cell number
sgRNA knockout: sgATF3, 10 nM | 109
sgRNA knockout: sgATF3, 100 nM | 104
sgRNA knockout: sgATF3, 1000 nM | 91.6
sgRNA knockout: sgATF3, 10000 nM | 74.8
sgRNA knockout: sgATF4, 10 nM | 103
sgRNA knockout: sgATF4, 100 nM | 103
sgRNA knockout: sgATF4, 1000 nM | 95.4
sgRNA knockout: sgATF4, 10000 nM | 61.8
sgRNA knockout: sgATF6, 10 nM | 105
sgRNA knockout: sgATF6, 100 nM | 91.5
sgRNA knockout: sgATF6, 1000 nM | 82.8
sgRNA knockout: sgATF6, 10000 nM | 80
sgRNA knockout: sgATG7, 10 nM | 109
sgRNA knockout: sgATG7, 100 nM | 104
sgRNA knockout: sgATG7, 1000 nM | 95.8
sgRNA knockout: sgATG7, 10000 nM | 72.8
sgRNA knockout: sgERN1, 10 nM | 94.7
sgRNA knockout: sgERN1, 100 nM | 93.2
sgRNA knockout: sgERN1, 1000 nM | 98.5
sgRNA knockout: sgERN1, 10000 nM | 73.386
sgRNA knockout: sgHSF1, 10 nM | 103.9
sgRNA knockout: sgHSF1, 100 nM | 100
sgRNA knockout: sgHSF1, 1000 nM | 92.2
sgRNA knockout: sgHSF1, 10000 nM | 74.5
sgRNA knockout: sgHSF2, 10 nM | 104
sgRNA knockout: sgHSF2, 100 nM | 90.7
sgRNA knockout: sgHSF2, 1000 nM | 95.7
sgRNA knockout: sgHSF2, 10000 nM | 75.3
sgRNA knockout: sgKEAP1, 10 nM | 89.7
sgRNA knockout: sgKEAP1, 100 nM | 104
sgRNA knockout: sgKEAP1, 1000 nM | 88.13
sgRNA knockout: sgKEAP1, 10000 nM | 79.8
sgRNA knockout: sgNFE2L2, 10 nM | 98.5
sgRNA knockout: sgNFE2L2, 100 nM | 104
sgRNA knockout: sgNFE2L2, 1000 nM | 85.8
sgRNA knockout: sgNFE2L2, 10000 nM | 82.9
sgRNA knockout: sgSLC35F2, 10 nM | 97
sgRNA knockout: sgSLC35F2, 100 nM | 96.1
sgRNA knockout: sgSLC35F2, 1000 nM | 77.1
sgRNA knockout: sgSLC35F2, 10000 nM | 69.7
sgRNA knockout: sgXBP1, 10 nM | 100
sgRNA knockout: sgXBP1, 100 nM | 108
sgRNA knockout: sgXBP1, 1000 nM | 94
sgRNA knockout: sgXBP1, 10000 nM | 82.3

COc1nc(N)nc2c1ncn2[C@@H]1O[C@H](CO)[C@@H](O)[C@@H]1O [Nelarabine]
Settings | relative cell number
sgRNA knockout: sgATF3, 10 nM | 89.7
sgRNA knockout: sgATF3, 100 nM | 99.7
sgRNA knockout: sgATF3, 1000 nM | 92.2
sgRNA knockout: sgATF3, 10000 nM | 105
sgRNA knockout: sgATF4, 10 nM | 112
sgRNA knockout: sgATF4, 100 nM | 107.97
sgRNA knockout: sgATF4, 1000 nM | 95.4
sgRNA knockout: sgATF4, 10000 nM | 93
sgRNA knockout: sgATF6, 10 nM | 90.5
sgRNA knockout: sgATF6, 100 nM | 90.4
sgRNA knockout: sgATF6, 1000 nM | 105
sgRNA knockout: sgATF6, 10000 nM | 66.1
sgRNA knockout: sgATG7, 10 nM | 99.9
sgRNA knockout: sgATG7, 100 nM | 87.9
sgRNA knockout: sgATG7, 1000 nM | 97.2
sgRNA knockout: sgATG7, 10000 nM | 92.6
sgRNA knockout: sgERN1, 10 nM | 85.8
sgRNA knockout: sgERN1, 100 nM | 102
sgRNA knockout: sgERN1, 1000 nM | 107
sgRNA knockout: sgERN1, 10000 nM | 102
sgRNA knockout: sgHSF1, 10 nM | 101
sgRNA knockout: sgHSF1, 100 nM | 99.6
sgRNA knockout: sgHSF1, 1000 nM | 79.7
sgRNA knockout: sgHSF1, 10000 nM | 97.9
sgRNA knockout: sgHSF2, 10 nM | 107
sgRNA knockout: sgHSF2, 100 nM | 99.6
sgRNA knockout: sgHSF2, 1000 nM | 91.14
sgRNA knockout: sgHSF2, 10000 nM | 96.7
sgRNA knockout: sgKEAP1, 10 nM | 99.3
sgRNA knockout: sgKEAP1, 100 nM | 95.4
sgRNA knockout: sgKEAP1, 1000 nM | 89.2
sgRNA knockout: sgKEAP1, 10000 nM | 87.1
sgRNA knockout: sgNFE2L2, 10 nM | 92.9
sgRNA knockout: sgNFE2L2, 100 nM | 119
sgRNA knockout: sgNFE2L2, 1000 nM | 100
sgRNA knockout: sgNFE2L2, 10000 nM | 96.4
sgRNA knockout: sgSLC35F2, 10 nM | 103
sgRNA knockout: sgSLC35F2, 100 nM | 94.9
sgRNA knockout: sgSLC35F2, 1000 nM | 99
sgRNA knockout: sgSLC35F2, 10000 nM | 115
sgRNA knockout: sgXBP1, 10 nM | 93.5
sgRNA knockout: sgXBP1, 100 nM | 91
sgRNA knockout: sgXBP1, 1000 nM | 99
sgRNA knockout: sgXBP1, 10000 nM | 88.2

Cc1ncc([N+](=O)[O-])n1CC(O)CCl (configuration not stated) [Ornidazole]
Settings | relative cell number
sgRNA knockout: sgATF3, 10 nM | 92.9
sgRNA knockout: sgATF3, 100 nM | 101.4
sgRNA knockout: sgATF3, 1000 nM | 94.4
sgRNA knockout: sgATF3, 10000 nM | 99.7
sgRNA knockout: sgATF4, 10 nM | 87.2
sgRNA knockout: sgATF4, 100 nM | 96.06
sgRNA knockout: sgATF4, 1000 nM | 118
sgRNA knockout: sgATF4, 10000 nM | 104
sgRNA knockout: sgATF6, 10 nM | 85.7
sgRNA knockout: sgATF6, 100 nM | 86.9
sgRNA knockout: sgATF6, 1000 nM | 104
sgRNA knockout: sgATF6, 10000 nM | 111
sgRNA knockout: sgATG7, 10 nM | 103
sgRNA knockout: sgATG7, 100 nM | 103
sgRNA knockout: sgATG7, 1000 nM | 110
sgRNA knockout: sgATG7, 10000 nM | 86.5
sgRNA knockout: sgERN1, 10 nM | 101
sgRNA knockout: sgERN1, 100 nM | 100
sgRNA knockout: sgERN1, 1000 nM | 102
sgRNA knockout: sgERN1, 10000 nM | 79
sgRNA knockout: sgHSF1, 10 nM | 84.504
sgRNA knockout: sgHSF1, 100 nM | 113
sgRNA knockout: sgHSF1, 1000 nM | 113
sgRNA knockout: sgHSF1, 10000 nM | 95.5
sgRNA knockout: sgHSF2, 10 nM | 94.7
sgRNA knockout: sgHSF2, 100 nM | 99.4
sgRNA knockout: sgHSF2, 1000 nM | 103
sgRNA knockout: sgHSF2, 10000 nM | 101
sgRNA knockout: sgKEAP1, 10 nM | 94.39
sgRNA knockout: sgKEAP1, 100 nM | 87.8
sgRNA knockout: sgKEAP1, 1000 nM | 115
sgRNA knockout: sgKEAP1, 10000 nM | 98.4
sgRNA knockout: sgNFE2L2, 10 nM | 95.8
sgRNA knockout: sgNFE2L2, 100 nM | 112
sgRNA knockout: sgNFE2L2, 1000 nM | 109
sgRNA knockout: sgNFE2L2, 10000 nM | 100
sgRNA knockout: sgSLC35F2, 10 nM | 89
sgRNA knockout: sgSLC35F2, 100 nM | 100
sgRNA knockout: sgSLC35F2, 1000 nM | 104
sgRNA knockout: sgSLC35F2, 10000 nM | 115
sgRNA knockout: sgXBP1, 10 nM | 87
sgRNA knockout: sgXBP1, 100 nM | 101
sgRNA knockout: sgXBP1, 1000 nM | 115
sgRNA knockout: sgXBP1, 10000 nM | 106
